This passage reports binding results from doi:10.1101/2021.08.05.455199.

Sequences of proteins named here, by UniProt entry; tags and fusion partners are left off. A change or cut given only in a name is not applied to a line headed by its entry.
UniProt Q9C9W9, whole entry: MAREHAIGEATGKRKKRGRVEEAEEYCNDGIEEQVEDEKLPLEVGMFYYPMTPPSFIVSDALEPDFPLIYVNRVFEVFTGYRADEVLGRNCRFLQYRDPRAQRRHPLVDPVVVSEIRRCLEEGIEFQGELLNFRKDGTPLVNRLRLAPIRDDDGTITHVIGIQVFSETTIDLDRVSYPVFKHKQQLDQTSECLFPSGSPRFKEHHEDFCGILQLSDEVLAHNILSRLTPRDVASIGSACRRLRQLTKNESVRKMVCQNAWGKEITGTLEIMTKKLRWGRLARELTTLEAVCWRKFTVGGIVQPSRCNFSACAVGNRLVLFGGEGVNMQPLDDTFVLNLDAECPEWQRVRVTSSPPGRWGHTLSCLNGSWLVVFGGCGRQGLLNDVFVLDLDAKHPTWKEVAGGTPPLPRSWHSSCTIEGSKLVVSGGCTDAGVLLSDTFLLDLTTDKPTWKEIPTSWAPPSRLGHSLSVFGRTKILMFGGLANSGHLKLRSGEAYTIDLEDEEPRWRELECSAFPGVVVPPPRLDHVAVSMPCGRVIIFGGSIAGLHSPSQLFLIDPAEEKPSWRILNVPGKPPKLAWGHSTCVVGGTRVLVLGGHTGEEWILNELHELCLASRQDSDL

Like-named read-outs stand apart in the source and are kept apart here. Results are given in words; binding and its absence hold for the method and conditions named. In cells and extracts the contact can be indirect. Some entries that bind do so weakly or less than the wild type. For part of these data: Sequences can lack the tags named with a protein.

Assay [1] concerns the target SOS3/CBL4 tagged with FLAG (SOS3-FLAG) (Arabidopsis thaliana) (UniProt O81223). Nature of the assay: co-IP.
In assay [2] the target is T1, SOS2/CIPK24 protein kinase, BiFC fusion (Arabidopsis thaliana) (UniProt Q9LDI3).
T1 sequence: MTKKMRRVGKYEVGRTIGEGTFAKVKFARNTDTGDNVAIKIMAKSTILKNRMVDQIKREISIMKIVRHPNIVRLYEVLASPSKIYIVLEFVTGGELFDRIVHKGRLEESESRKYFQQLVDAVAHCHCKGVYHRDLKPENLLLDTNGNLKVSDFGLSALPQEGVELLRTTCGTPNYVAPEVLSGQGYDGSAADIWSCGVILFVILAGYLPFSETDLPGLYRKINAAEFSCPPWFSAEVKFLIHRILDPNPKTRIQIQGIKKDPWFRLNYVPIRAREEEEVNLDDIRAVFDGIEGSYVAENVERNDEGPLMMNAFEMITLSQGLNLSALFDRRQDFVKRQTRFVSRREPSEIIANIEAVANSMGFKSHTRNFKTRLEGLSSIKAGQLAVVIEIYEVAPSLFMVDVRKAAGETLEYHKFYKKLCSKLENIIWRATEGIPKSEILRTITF
Nature of the assay: split reporter.

Assay [3] addresses T2, GIGANTEA BiFC fusion (GI-VN) (Arabidopsis thaliana) (UniProt Q9SQI2).
T2 sequence: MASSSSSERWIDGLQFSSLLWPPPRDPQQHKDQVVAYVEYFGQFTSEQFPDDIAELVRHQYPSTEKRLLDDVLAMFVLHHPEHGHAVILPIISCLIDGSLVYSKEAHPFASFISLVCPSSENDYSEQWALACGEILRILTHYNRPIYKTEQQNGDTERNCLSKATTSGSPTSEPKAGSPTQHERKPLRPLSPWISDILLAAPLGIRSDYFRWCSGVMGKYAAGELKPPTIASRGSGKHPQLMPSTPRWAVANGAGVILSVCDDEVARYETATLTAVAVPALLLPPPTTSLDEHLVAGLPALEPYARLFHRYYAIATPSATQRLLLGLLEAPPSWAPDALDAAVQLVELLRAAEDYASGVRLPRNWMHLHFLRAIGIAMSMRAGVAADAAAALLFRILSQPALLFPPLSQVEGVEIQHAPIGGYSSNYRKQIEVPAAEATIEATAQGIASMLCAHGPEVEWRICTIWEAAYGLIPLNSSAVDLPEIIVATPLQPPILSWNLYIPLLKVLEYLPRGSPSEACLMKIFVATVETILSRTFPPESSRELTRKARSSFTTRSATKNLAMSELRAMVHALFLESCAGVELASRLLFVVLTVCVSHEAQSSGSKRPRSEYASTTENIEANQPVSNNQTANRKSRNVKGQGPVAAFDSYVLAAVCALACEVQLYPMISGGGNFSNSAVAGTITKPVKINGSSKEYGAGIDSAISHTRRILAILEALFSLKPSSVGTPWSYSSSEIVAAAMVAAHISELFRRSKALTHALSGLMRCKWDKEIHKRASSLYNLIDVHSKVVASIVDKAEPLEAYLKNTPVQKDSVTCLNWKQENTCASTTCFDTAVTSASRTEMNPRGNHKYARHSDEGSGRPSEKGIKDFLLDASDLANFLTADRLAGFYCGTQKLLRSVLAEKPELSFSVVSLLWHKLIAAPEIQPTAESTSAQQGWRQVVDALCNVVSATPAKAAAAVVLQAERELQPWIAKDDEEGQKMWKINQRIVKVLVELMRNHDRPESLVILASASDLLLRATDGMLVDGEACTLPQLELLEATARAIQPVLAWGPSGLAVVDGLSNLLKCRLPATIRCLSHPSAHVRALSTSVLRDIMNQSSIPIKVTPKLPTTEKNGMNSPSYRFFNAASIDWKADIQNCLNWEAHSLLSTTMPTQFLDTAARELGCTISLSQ
Kind of assay: split reporter.

Assay [4] concerns the target T3, GIGANTEA tagged with HA (GI-HA) (Arabidopsis thaliana) (UniProt Q9SQI2).
T3 sequence: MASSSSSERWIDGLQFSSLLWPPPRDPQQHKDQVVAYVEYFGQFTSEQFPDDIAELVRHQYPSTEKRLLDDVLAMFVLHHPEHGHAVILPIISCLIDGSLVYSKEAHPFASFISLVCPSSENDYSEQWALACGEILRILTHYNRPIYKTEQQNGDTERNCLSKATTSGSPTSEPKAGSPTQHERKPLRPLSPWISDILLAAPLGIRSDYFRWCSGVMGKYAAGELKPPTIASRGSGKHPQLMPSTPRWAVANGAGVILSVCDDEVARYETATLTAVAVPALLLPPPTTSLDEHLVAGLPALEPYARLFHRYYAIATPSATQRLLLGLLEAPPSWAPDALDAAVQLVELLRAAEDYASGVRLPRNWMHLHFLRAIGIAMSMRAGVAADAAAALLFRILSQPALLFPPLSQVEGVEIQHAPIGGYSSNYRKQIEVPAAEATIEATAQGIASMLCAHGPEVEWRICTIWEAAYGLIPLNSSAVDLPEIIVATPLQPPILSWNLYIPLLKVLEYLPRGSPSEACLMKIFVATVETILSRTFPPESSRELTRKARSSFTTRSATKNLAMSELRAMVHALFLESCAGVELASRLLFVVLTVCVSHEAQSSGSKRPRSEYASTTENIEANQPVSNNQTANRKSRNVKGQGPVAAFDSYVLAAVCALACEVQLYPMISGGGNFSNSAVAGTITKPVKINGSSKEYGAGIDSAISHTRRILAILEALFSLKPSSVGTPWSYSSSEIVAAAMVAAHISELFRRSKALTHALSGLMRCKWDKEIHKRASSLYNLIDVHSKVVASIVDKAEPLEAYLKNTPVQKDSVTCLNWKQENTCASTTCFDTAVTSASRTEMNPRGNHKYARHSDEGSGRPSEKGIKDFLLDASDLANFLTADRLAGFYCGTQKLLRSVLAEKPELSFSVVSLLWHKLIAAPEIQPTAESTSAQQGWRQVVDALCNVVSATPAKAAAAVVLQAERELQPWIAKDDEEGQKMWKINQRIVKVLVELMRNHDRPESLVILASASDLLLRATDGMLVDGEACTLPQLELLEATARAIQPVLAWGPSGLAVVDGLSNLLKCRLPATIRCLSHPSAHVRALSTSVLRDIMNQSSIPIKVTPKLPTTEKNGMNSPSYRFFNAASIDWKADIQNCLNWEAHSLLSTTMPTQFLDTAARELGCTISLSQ
Kind of assay: co-IP.

Assay [5] addresses SOS3-G2A fused to GFP (SOS3-G2A-GFP) (Arabidopsis thaliana) (UniProt O81223). Nature of the assay: co-IP.
The target of assay [6] is SOS3/CBL4 fused to GFP (SOS3-GFP) (Arabidopsis thaliana) (UniProt O81223). Nature of the assay: co-IP.
In assay [7] the target is SOS3/CBL4 tagged with FLAG (SOS3-FLAG) (Arabidopsis thaliana) (UniProt O81223). Nature of the assay: co-IP. The source holds these as a separate data set.
The target of assay [8] is SOS3-C3A fused to GFP (SOS3-C3A-GFP) (Arabidopsis thaliana) (UniProt O81223). Kind of assay: co-IP.

“FKF1 (FLAVIN-BINDING, KELCH REPEAT, F-BOX 1) tagged with MYC (FKF1-MYC) (from UniProt Q9C9W9 1-619)”: the binding entry in assay [1] is on record as “binds”. In the case of “SOS3-C3A, BiFC fusion (from UniProt O81223 1-222)”, the binding entry in assay [2] and in assay [3] was “binds” in each case. “SOS3/CBL4 BiFC fusion (SOS3-VC) (from UniProt O81223 1-222)”: the binding result in assay [3] is “binds”.

On to “SOS3/CBL4 tagged with MYC (SOS3-MYC) (from UniProt O81223 1-222)”, for which the binding entry in assay [4] is “binds”.

B1: GIGANTEA tagged with HA (GI-HA) (protein, UniProt Q9SQI2 1-1173)
chain: MASSSSSERWIDGLQFSSLLWPPPRDPQQHKDQVVAYVEYFGQFTSEQFPDDIAELVRHQYPSTEKRLLDDVLAMFVLHHPEHGHAVILPIISCLIDGSLVYSKEAHPFASFISLVCPSSENDYSEQWALACGEILRILTHYNRPIYKTEQQNGDTERNCLSKATTSGSPTSEPKAGSPTQHERKPLRPLSPWISDILLAAPLGIRSDYFRWCSGVMGKYAAGELKPPTIASRGSGKHPQLMPSTPRWAVANGAGVILSVCDDEVARYETATLTAVAVPALLLPPPTTSLDEHLVAGLPALEPYARLFHRYYAIATPSATQRLLLGLLEAPPSWAPDALDAAVQLVELLRAAEDYASGVRLPRNWMHLHFLRAIGIAMSMRAGVAADAAAALLFRILSQPALLFPPLSQVEGVEIQHAPIGGYSSNYRKQIEVPAAEATIEATAQGIASMLCAHGPEVEWRICTIWEAAYGLIPLNSSAVDLPEIIVATPLQPPILSWNLYIPLLKVLEYLPRGSPSEACLMKIFVATVETILSRTFPPESSRELTRKARSSFTTRSATKNLAMSELRAMVHALFLESCAGVELASRLLFVVLTVCVSHEAQSSGSKRPRSEYASTTENIEANQPVSNNQTANRKSRNVKGQGPVAAFDSYVLAAVCALACEVQLYPMISGGGNFSNSAVAGTITKPVKINGSSKEYGAGIDSAISHTRRILAILEALFSLKPSSVGTPWSYSSSEIVAAAMVAAHISELFRRSKALTHALSGLMRCKWDKEIHKRASSLYNLIDVHSKVVASIVDKAEPLEAYLKNTPVQKDSVTCLNWKQENTCASTTCFDTAVTSASRTEMNPRGNHKYARHSDEGSGRPSEKGIKDFLLDASDLANFLTADRLAGFYCGTQKLLRSVLAEKPELSFSVVSLLWHKLIAAPEIQPTAESTSAQQGWRQVVDALCNVVSATPAKAAAAVVLQAERELQPWIAKDDEEGQKMWKINQRIVKVLVELMRNHDRPESLVILASASDLLLRATDGMLVDGEACTLPQLELLEATARAIQPVLAWGPSGLAVVDGLSNLLKCRLPATIRCLSHPSAHVRALSTSVLRDIMNQSSIPIKVTPKLPTTEKNGMNSPSYRFFNAASIDWKADIQNCLNWEAHSLLSTTMPTQFLDTAARELGCTISLSQ
Take B1: the binding entry in assay [5], in assay [6], in assay [7] and in assay [8] was “binds” in each case.
